# Test results from PMC7819943, “Rice protein-binding microarrays: a tool to detect cis-acting elements near promoter regions in rice”.
# This is one part of the list.
# Target: T1, OsSMF1 (Oryza sativa, UniProt Q6ZLB0 1-436)
# T1 sequence: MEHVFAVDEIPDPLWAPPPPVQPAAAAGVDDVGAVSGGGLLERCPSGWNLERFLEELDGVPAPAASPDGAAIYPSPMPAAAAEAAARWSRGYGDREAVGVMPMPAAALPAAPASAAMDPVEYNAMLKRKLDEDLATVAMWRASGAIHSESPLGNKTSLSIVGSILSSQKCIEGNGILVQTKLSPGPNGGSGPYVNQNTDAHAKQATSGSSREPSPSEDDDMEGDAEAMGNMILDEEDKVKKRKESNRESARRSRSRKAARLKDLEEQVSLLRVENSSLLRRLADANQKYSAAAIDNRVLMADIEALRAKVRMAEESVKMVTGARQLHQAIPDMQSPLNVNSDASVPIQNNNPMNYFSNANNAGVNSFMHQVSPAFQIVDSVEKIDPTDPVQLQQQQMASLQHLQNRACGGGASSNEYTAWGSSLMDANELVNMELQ
# Assay: protein-binding microarray (RPBM); PBS, 2% BSA, 51.3 ng/ul salmon testes DNA, 50 uM zinc acetate, 200 nM TF, 25 C, 1 h; high values mean tight binding
# Conditions: protein: recombinant; tags: N-terminal polyhistidine and DsRed monomer fusion (pET32a); chain copies: 2; label: CyDye5-dUTP incorporated in the synthesized complementary strand; 3' TTTTT single-stranded linker to array surface; dsDNA, one strand shown
# Method in brief: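 Binding signal is defined as the fluorescence intensity of each feature in arbitrary units, read on an Axon 4000B scanner. Transcription factors with N-terminal polyhistidine and DsRed fusions came from E. coli BL21-CodonPlus and were purified on Ni–NTA. They were incubated at 200 nM for 1 h at 25 °C on a custom Agilent array that had been made double-stranded with Cy5-dUTP, with 50 µM zinc acetate present, and the array was washed.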
row,Sequence,binding signal
1,CCTGCCAGCAGTACACGTCCATGGATCATCCAATATTAATCGGAGTCACCTAGTGCAG,3350 fluorescence intensity (a.u.)
2,CCACCACCACCACCGCACCCTCGCCACCGCATCCCATATCCGGAGTCACCTAGTGCAG,3150 fluorescence intensity (a.u.)
3,AACATTTCGAAACGGAGAGAGTATTACCTATTCGAGATTGCGGAGTCACCTAGTGCAG,31900 fluorescence intensity (a.u.)
4,AAAATAAAGCTGTGGATGAAATTGGATATAGATACATGGCCGGAGTCACCTAGTGCAG,15100 fluorescence intensity (a.u.)
5,CGCGCCGCCGGCCGCCGGCGATCCTCCCGCCGGAGCACGCCGGAGTCACCTAGTGCAG,26500 fluorescence intensity (a.u.)
6,TGACGGTGGCGGCTATGGCGGCGGCGGCGTCAGCTAGGTTCGGAGTCACCTAGTGCAG,3690 fluorescence intensity (a.u.)
7,CGGCTAGGCTCCTCCCTCTCGCGGTGACGCGCCACAACGACGGAGTCACCTAGTGCAG,4970 fluorescence intensity (a.u.)
8,ATAAGTGCTCAAGCGTTCAATGTGACATGGCGTAAAATTTCGGAGTCACCTAGTGCAG,4150 fluorescence intensity (a.u.)
9,TGAATCGAGTTGCCAGCTATACATATCCTCTCCAAATCAACGGAGTCACCTAGTGCAG,3320 fluorescence intensity (a.u.)
10,TAGTTTTCCCGCTAGGCGCCACGACGGAATGGGCGCTACACGGAGTCACCTAGTGCAG,3140 fluorescence intensity (a.u.)
11,CCCCACGACGCCACGTACTCTCGGTCTCTCGCCCCGCGCCCGGAGTCACCTAGTGCAG,11100 fluorescence intensity (a.u.)
12,ATGTCTTAAGCAAGTTTTGACATCCTCATTACAGTGCGGCCGGAGTCACCTAGTGCAG,3390 fluorescence intensity (a.u.)
13,AGACTAGAAACTTTCGGCCCGTCATTCTCATATTTTCGAACGGAGTCACCTAGTGCAG,3250 fluorescence intensity (a.u.)
14,AGATGAGAGAGAAGAGCAGCGGGCTACAAATCTGTAGCCACGGAGTCACCTAGTGCAG,3900 fluorescence intensity (a.u.)
15,ACGTGCAAGTTAAATTTTAACTCAGCGACCCACAACCCAACGGAGTCACCTAGTGCAG,3410 fluorescence intensity (a.u.)
16,TTGTTGACTACGAGTCAGACCTTCAGACCGCCATGTCGACCGGAGTCACCTAGTGCAG,4020 fluorescence intensity (a.u.)
17,CGCCGCGAAGGCGCGAAGCCCCGTCACCGCGCGCGCGCGCCGGAGTCACCTAGTGCAG,5540 fluorescence intensity (a.u.)
18,AGAGACGGGAATCTCCACGGCGATCACGTCCACACCACACCGGAGTCACCTAGTGCAG,3180 fluorescence intensity (a.u.)
19,GTTGCATATGCCGTCACTTGTCACGTCTGCCATGCACGAACGGAGTCACCTAGTGCAG,4460 fluorescence intensity (a.u.)
20,GTGGAGGCGCGGTGGGGTGGGGAAGGAGTGTGTTTCGTGTCGGAGTCACCTAGTGCAG,6590 fluorescence intensity (a.u.)
21,GCACGTGGGCCAACACGGCATAGTCCGTTCGGTGAGTCGTCGGAGTCACCTAGTGCAG,3740 fluorescence intensity (a.u.)
22,TTGGCGAGACCAGCCATGGCGATGGCGATGACGAACACAGCGGAGTCACCTAGTGCAG,3460 fluorescence intensity (a.u.)
23,ACGGCGAGCACCATCGACGAGCTGTACGCGTCAGGCGGGACGGAGTCACCTAGTGCAG,4290 fluorescence intensity (a.u.)
24,CTTCAAACCAAATAGACACTAAACACTATTGAAATTGCCACGGAGTCACCTAGTGCAG,3440 fluorescence intensity (a.u.)
25,GATCTGCTGCTAGCTAGCATGTTACGTAAATACGTACAAACGGAGTCACCTAGTGCAG,3320 fluorescence intensity (a.u.)
26,ACGATCGGTGACGACGAGCGACGACGCGGCATGAAGACGCCGGAGTCACCTAGTGCAG,3300 fluorescence intensity (a.u.)
27,AGCTACCATGACGCACGTACCTCCGCCGGCCACGCGTGTGCGGAGTCACCTAGTGCAG,4970 fluorescence intensity (a.u.)

row,Sequence,binding signal
1,GATAATGAGTCAGTCCTCTTGTCGATACTCCGCCGGTATGCGGAGTCACCTAGTGCAG,5150 fluorescence intensity (a.u.)
2,AGCCCCAAGCCCAGCCGCGCCCACGCCAAGGCCGCCCACGCGGAGTCACCTAGTGCAG,3440 fluorescence intensity (a.u.)
3,GGCGTCCCTCGCCCAGCGTGACTATCTCCCGGCCGGTGGCCGGAGTCACCTAGTGCAG,3410 fluorescence intensity (a.u.)
4,TACACATATCATCTATCCACATGGCCTCCTTCCTGTTAGGCGGAGTCACCTAGTGCAG,3380 fluorescence intensity (a.u.)
5,CTCACCTCACCGCCGATCCGGCCACGCAGCATAAATACGGCGGAGTCACCTAGTGCAG,3800 fluorescence intensity (a.u.)
6,GGGAGGGGAGCCGGCGTTGTCAGCGTCGCTCCGCCCACCGCGGAGTCACCTAGTGCAG,5660 fluorescence intensity (a.u.)
7,AGTTAATTATGTGCCGGTCCCCGCTGTTGTCCACCATCCGCGGAGTCACCTAGTGCAG,3880 fluorescence intensity (a.u.)
8,CGTTCCTTCTCATCAGTTTGGCTAAGATTTGGGACCGACCCGGAGTCACCTAGTGCAG,3420 fluorescence intensity (a.u.)
9,AAGCAACTCAGCGTGCTAACTTTGGCTGAGTCAACCAAGGCGGAGTCACCTAGTGCAG,4040 fluorescence intensity (a.u.)
10,TGCTGAGTGAGTGATGAGTGTGCGAATGTGTGATCGATCGCGGAGTCACCTAGTGCAG,3860 fluorescence intensity (a.u.)
11,CAGCGACACTAAGGCCGCCGCCACCGCCGCCTCCCGCGAGCGGAGTCACCTAGTGCAG,3170 fluorescence intensity (a.u.)
12,TCTCCTCCTCCTCTCCGCCACCTCGTCTCGTCTCCCCTCCCGGAGTCACCTAGTGCAG,3320 fluorescence intensity (a.u.)
13,TATGAGGGTATCAGGGTCGTTGAGGTCTCTCCTCCTACACCGGAGTCACCTAGTGCAG,41000 fluorescence intensity (a.u.)
14,TGGGACCCACACTGACCTCTCACTCACCGCCAGTTGGCCCCGGAGTCACCTAGTGCAG,3350 fluorescence intensity (a.u.)
15,GTCACGCACGACTCCCATTTATCACGGTCACGCGAGCCCCCGGAGTCACCTAGTGCAG,3570 fluorescence intensity (a.u.)
16,GTTCGTAGGGGTAGGATTTGCATGCGTGTATTTGTAGGGGCGGAGTCACCTAGTGCAG,4560 fluorescence intensity (a.u.)
17,CGACGCCGACCTCATGGCCCGCGCCACCACCACCCGCGCCCGGAGTCACCTAGTGCAG,4360 fluorescence intensity (a.u.)
18,TCAAGTGTGTTCTATAAACGACACATCATCCACGTACTGACGGAGTCACCTAGTGCAG,10200 fluorescence intensity (a.u.)
19,TTTGGATTGGCCAGAACAAGATATACTTTCGAATCTTTTGCGGAGTCACCTAGTGCAG,32200 fluorescence intensity (a.u.)
20,CGCTCCATGAAAGTGATAGCAGTGACTTGTCCACACAGGTCGGAGTCACCTAGTGCAG,3240 fluorescence intensity (a.u.)
21,TTCTAGCCTATTTTAAATCCCATGCAAGCATAACATATTACGGAGTCACCTAGTGCAG,4540 fluorescence intensity (a.u.)
22,TCGTCGCCACCACCACCACCGCCGTTGCCACTAATCCGCCCGGAGTCACCTAGTGCAG,3700 fluorescence intensity (a.u.)
23,GCTAATAGGATACACTGATTAGGAGAACAATATGGCACAACGGAGTCACCTAGTGCAG,22600 fluorescence intensity (a.u.)
24,TCTGAGGTTGCTTGCTGATTCACAGGTCGATCGTGTTGCTCGGAGTCACCTAGTGCAG,6190 fluorescence intensity (a.u.)
25,AAATCACTCCGTGACTCACACGGCAAACTTTTGTCAATTACGGAGTCACCTAGTGCAG,5320 fluorescence intensity (a.u.)
26,GGCCACTCCTCCACGCACACACCTCTCTCTCTCTCTCTCTCGGAGTCACCTAGTGCAG,4390 fluorescence intensity (a.u.)
27,TCCAGTAACCACTCGAATACTGACAAACCAGCATCTCGTTCGGAGTCACCTAGTGCAG,5090 fluorescence intensity (a.u.)

# Quoted at random: 4 records from the list, in no set order.
row,Sequence,binding signal
20,CGCTCCATGAAAGTGATAGCAGTGACTTGTCCACACAGGTCGGAGTCACCTAGTGCAG,3240 fluorescence intensity (a.u.)
15,ACGTGCAAGTTAAATTTTAACTCAGCGACCCACAACCCAACGGAGTCACCTAGTGCAG,3410 fluorescence intensity (a.u.)
11,CAGCGACACTAAGGCCGCCGCCACCGCCGCCTCCCGCGAGCGGAGTCACCTAGTGCAG,3170 fluorescence intensity (a.u.)
14,AGATGAGAGAGAAGAGCAGCGGGCTACAAATCTGTAGCCACGGAGTCACCTAGTGCAG,3900 fluorescence intensity (a.u.)
